Reference: paper PMC7099064
No constants are given. Whether binding was seen depends on the method and setting. In cells and extracts the contact can be indirect. Some results given as binding are weak or reduced against the parent protein; the word gives no strength. Blank lines part the entries; values can stand above or below the substance they belong to.

Chains of the proteins cited; added tags and fusions are not shown.
UniProt Q9Z218: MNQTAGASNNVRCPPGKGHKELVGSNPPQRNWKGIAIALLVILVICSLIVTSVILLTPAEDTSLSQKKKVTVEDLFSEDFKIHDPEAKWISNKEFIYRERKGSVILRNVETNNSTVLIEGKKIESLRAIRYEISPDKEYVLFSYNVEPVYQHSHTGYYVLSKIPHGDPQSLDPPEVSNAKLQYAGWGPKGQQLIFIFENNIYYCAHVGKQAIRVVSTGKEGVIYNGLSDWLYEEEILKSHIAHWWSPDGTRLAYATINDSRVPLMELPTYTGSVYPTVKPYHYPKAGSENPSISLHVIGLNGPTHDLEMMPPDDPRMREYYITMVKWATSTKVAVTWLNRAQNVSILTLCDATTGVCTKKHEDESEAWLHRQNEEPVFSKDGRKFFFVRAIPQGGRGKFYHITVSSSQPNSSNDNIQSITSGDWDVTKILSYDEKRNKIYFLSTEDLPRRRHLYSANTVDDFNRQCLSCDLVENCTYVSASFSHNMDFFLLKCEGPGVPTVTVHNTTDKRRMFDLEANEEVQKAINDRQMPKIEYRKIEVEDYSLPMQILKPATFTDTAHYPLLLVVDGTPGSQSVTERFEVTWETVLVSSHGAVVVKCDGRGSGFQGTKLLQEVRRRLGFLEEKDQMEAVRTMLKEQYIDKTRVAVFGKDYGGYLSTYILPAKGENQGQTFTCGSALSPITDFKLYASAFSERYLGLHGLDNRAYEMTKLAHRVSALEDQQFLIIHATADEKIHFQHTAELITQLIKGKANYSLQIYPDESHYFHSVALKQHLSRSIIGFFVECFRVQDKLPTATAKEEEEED
UniProt Q13526: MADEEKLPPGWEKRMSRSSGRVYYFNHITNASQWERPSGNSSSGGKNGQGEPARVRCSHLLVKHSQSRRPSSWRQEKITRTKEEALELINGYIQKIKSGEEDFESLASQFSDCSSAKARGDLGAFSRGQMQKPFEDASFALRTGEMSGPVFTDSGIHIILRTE
UniProt Q9QUR7: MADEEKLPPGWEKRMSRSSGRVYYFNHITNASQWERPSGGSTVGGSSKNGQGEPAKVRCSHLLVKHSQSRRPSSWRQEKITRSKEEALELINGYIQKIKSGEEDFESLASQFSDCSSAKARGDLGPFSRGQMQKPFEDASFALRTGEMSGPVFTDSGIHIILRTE

Assays:
[1] = target: T1, Kv4.2 T607A of the knock-in mouse (Kv4.2TA) (mouse (endogenous in brain)) (UniProt Q9Z0V2); test: co-IP; mouse forebrain lysates (WT or Kv4.2TA; with or without PTZ, SB203580, SL327, juglone), IP with anti-Kv4.2 (NeuroMab 75-016), PBS pH 7.4 with 1% Triton X-100 and 0.2% Chaps, 4 °C, blot for DPP6
T1 sequence: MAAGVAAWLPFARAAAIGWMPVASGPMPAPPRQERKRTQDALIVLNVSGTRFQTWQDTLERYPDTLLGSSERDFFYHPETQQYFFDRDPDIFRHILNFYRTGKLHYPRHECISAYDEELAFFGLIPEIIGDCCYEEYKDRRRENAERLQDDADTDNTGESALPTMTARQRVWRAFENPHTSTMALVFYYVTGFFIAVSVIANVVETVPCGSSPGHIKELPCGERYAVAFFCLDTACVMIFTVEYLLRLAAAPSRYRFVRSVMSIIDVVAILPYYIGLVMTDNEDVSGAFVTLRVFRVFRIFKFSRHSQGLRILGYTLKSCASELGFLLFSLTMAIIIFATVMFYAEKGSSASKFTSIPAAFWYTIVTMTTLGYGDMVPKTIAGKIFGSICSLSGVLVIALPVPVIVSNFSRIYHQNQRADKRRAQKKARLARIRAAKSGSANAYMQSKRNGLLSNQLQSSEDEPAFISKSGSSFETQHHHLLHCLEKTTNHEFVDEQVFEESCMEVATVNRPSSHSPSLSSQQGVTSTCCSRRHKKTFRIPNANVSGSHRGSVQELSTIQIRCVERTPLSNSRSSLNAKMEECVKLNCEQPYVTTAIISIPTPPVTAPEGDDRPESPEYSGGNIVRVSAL

Kv4.1 = target: T2, Kv4.1 (UniProt Q9NSA2); test: co-IP; Pin1 with Kv4.1, Kv4.2, Kv4.3 and Kv3.4 (Supplementary Fig. 2c); constructs and cells not shown
T2 sequence: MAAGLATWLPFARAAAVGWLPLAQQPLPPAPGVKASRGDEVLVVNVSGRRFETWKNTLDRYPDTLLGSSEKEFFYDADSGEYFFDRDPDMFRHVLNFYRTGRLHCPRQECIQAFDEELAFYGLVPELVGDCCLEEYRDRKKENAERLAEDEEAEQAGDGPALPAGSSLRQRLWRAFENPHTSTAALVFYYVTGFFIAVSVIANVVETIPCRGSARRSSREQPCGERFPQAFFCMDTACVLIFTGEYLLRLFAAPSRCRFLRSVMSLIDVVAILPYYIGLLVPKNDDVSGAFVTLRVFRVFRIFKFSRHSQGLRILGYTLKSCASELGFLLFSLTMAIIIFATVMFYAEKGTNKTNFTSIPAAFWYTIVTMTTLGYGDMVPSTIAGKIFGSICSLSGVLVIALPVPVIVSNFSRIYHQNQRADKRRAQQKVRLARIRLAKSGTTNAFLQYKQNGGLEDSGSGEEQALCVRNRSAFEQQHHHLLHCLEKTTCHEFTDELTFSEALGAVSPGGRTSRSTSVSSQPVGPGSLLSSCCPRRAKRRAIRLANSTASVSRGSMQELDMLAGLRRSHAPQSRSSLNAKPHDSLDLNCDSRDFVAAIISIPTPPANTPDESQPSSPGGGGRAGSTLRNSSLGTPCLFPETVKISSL

Kv4.3 = target: T3, Kv4.3 (UniProt Q9UK17); test: as above
T3 sequence: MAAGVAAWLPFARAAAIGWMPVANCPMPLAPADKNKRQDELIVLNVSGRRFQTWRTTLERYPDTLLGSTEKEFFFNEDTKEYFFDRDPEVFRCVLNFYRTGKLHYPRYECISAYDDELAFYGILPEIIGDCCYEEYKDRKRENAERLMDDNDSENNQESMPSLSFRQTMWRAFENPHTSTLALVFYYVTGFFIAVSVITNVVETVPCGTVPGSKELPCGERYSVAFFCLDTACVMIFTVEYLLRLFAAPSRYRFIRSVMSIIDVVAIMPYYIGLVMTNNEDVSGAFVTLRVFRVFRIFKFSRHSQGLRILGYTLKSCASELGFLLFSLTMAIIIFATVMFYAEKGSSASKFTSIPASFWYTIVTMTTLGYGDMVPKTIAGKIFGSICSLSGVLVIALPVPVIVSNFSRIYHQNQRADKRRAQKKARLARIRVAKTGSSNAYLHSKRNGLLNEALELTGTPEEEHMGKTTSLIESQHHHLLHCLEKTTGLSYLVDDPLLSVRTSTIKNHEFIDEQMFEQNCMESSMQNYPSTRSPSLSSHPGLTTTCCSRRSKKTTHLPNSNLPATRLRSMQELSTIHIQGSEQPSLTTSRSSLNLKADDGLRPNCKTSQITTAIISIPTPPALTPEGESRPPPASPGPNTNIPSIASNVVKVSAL

[2] = target: Kv4.2, endogenous in mouse brain and cultured mouse neurons (mouse (endogenous in brain)) (UniProt Q9Z0V2); test: co-IP; mouse forebrain lysates (WT, Kv4.2 KO, Kv4.2TA; with or without PTZ), IP with mouse or rabbit anti-Kv4.2, PBS pH 7.4 with 0.8% Triton X-100, 4 °C, blot for Pin1

binding [1]: binds
Substance: dipeptidyl peptidase 6 (DPP6), endogenous in mouse brain and cultured mouse neurons (from UniProt Q9Z218 1-804)

binding (Kv4.1): binds
binding (Kv4.3): binds
Substance: peptidyl-prolyl cis-trans isomerase NIMA-interacting 1 (Pin1), as used in the experiments of Supplementary Fig. 2 (from UniProt Q13526 1-163) (enzyme)

binding [2]: binds
Substance: peptidyl-prolyl cis-trans isomerase NIMA-interacting 1 (Pin1), endogenous in mouse brain (from UniProt Q9QUR7 1-165) (enzyme)
